Measured values as given in PubChem BioAssay AID485314 (National Center for Advancing Translational Sciences (NCATS), 2010).
Screen size: about 340,000 compounds; about 4,500 (1.3%) were called active. This list was built around the results that the source calls inconclusive (neither active nor inactive); the mix of calls is not that of the screen. Calls follow the shape of the dose curve; as a rule, active = well fitted inhibition curve with a large enough effect; inconclusive = small, poorly fitted or top-dose-only effect, or another doubt; inactive = no such curve, though single readings can be large or run the other way. Potencies beside an inconclusive call are fits to weak or partial responses and may not hold up.

The compounds below were run against DNA polymerase beta (Homo sapiens) (UniProt P06746) (assay: qHTS Assay for Inhibitors of DNA Polymerase Beta). Settings: Pol beta primer extension/strand displacement, fluorescence kinetic; activity change, negative = inhibition: at 114 µM (top of the series).
Outline: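 Human Pol beta at 10 nM; strand-displacement substrate 50 nM final. Compound exposure 15 min at room temperature before start, reaction 10 min at room temperature.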
% is scaled to controls: 0 for no effect and ±100 for the full control effect; potency is read from the fitted curve at half-maximal effect.

SMILES	Potency	activity change, negative = inhibition
Cc1ccc2c(c1)c(=O)c(C(=O)c1ccccc1)cn2Cc1ccccc1F	inactive	–
CCOC(=O)N1CCC(N2Cc3cccc(C(=O)NCc4ccc(OC)cc4)c3C2=O)CC1	active: 15.8 µM	–
O=C(N/N=C/c1cn(Cc2cccc(F)c2)c2ccccc12)c1cc(O)cc(O)c1	active: 1.41 µM	–
CC(C)c1ccc(C(O)Cc2nc3ccccc3n2C)cc1 (stereo not drawn)	inconclusive: 15.8 µM [inhibitor, partial curve, poor fit]	–
Cc1cc(N/C=C\C(=O)c2ccc(Cl)c(Cl)c2)no1	inconclusive: 10 µM [inhibitor, full curve]	–
CCOc1ccccc1-c1noc(CCCC(=O)Nc2cccc(C(F)(F)F)c2)n1	inactive	–
O=C(CSc1nc(-c2ccc(F)cc2)nc2c1Cc1ccccc1O2)Nc1cccc(C(=O)O)c1	active: 2.82 µM	–
CC(=O)Nc1ccc(NC(=O)c2cc3c(=O)n(Cc4cccnc4)ccc3nc2C)cc1	inactive	–
COc1ccc(C2NC(=O)NC(O)(C(F)(F)F)C2C(=O)c2ccc(F)cc2)cc1 (stereo not drawn)	inconclusive: 39.8 µM [inhibitor, single point]	–
Cc1cc2nn(-c3ccccc3)nc2cc1NC(=O)c1cccs1	inconclusive: 22.4 µM [inhibitor, partial curve]	–
COc1cccc(CN(CC2CCCO2)S(=O)(=O)c2ccc(S(=O)(=O)N(C)C)cc2)c1 (stereo not drawn)	inconclusive: 0.891 µM [inhibitor, full curve, poor fit]	–
CCCCc1cc(=O)oc2cc(OCC(=O)Nc3ccccn3)ccc12	–	inconclusive: -48.1% [inhibitor]
Cc1ccc(C)c(NC(=O)CSc2ccc(-c3cccs3)nn2)c1	inconclusive: 22.4 µM [inhibitor, full curve]	–
O=C(Cn1c(=O)sc2ccccc21)NCc1ccco1	inconclusive: 25.1 µM [inhibitor, partial curve]	–
O=C(CCCCn1c(=O)c2ccccc2n(CC(=O)Nc2cccc(F)c2)c1=O)NCc1ccco1	inconclusive: 3.16 µM [inhibitor, partial curve, poor fit]	–
CCCn1c(=O)c2ccccc2n2c(SCC(=O)c3ccccc3)nnc12	inactive	–
CC(=O)Nc1c(O)c2ccccc2[nH]c1=O	inconclusive: 0.631 µM [inhibitor, full curve]	–
O=C1CC(c2ccccc2)CC(O)=C1C=Nc1ccc(Cl)cc1 (stereo not drawn)	inconclusive: 89.1 µM [inhibitor, single point]	–
CCOC(=O)CCN(c1ccccc1)S(=O)(=O)c1cc(-c2cc(C)no2)ccc1C	inactive	–
Cc1cn(C)c(CC(=O)N2CCN(c3cccc(C(F)(F)F)c3)CC2)c1C(=O)O	inactive	–
NC(=O)C(=O)N/N=C/c1c2ccccc2cc2ccccc12	inactive	–
Cc1cc(C)n(CC(C)NCc2cn[nH]c2-c2cccc3ccccc23)n1 (stereo not drawn)	inconclusive: 25.1 µM [inhibitor, partial curve, poor fit]	–
O=C(COc1ccc(Cl)cc1)N1CCCCCCC1	inconclusive: 3.98 µM [inhibitor, single point]	–

SMILES	Potency	activity change, negative = inhibition
CSc1ccccc1NC(=O)CSCc1ccc(C)cc1	inconclusive: 0.282 µM [inhibitor, full curve]	–
CCOc1ccc2c(c1)c(N=Nc1cccc(C(=O)O)c1)c(O)n2C	inconclusive: 70.8 µM [inhibitor, partial curve, poor fit]	–
CC(=O)c1ccc(N2CCN(C(=O)COc3ccccc3F)CC2)c(F)c1	inconclusive: 70.8 µM [inhibitor, partial curve, poor fit]	–
COc1ccccc1-c1nc2c(c(SCC(=O)Nc3ccccc3F)n1)Cc1c(CO)cnc(C)c1O2	active: 79.4 µM	–
C=CCn1c(SCC(=O)N2CCOCC2)nnc1C(C)NC(=O)c1ccccc1 (stereo not drawn)	inactive	–
Cc1ccc(C)c(C(=O)COC(=O)c2cc(Cl)nc3ccccc23)c1	inconclusive: 20 µM [inhibitor, single point]	–
CN=c1scc(C)n1/N=C/c1ccc(O)c(O)c1O	active: 5.01 µM	–
Cc1ccc(OCCNC(=O)c2ccccc2O)cc1	inconclusive: 39.8 µM [inhibitor, single point]	–
Cc1ccc(/C=N/Nc2nc(N3CCCCC3)nc(N3CCCCC3)n2)o1	inconclusive: 28.2 µM [inhibitor, single point]	–
COc1ccc(C2C(C(C)=O)=C(C)N=c3s/c(=C\c4cc(C)n(C)c4C)c(=O)n32)c(OC)c1 (stereo not drawn)	inactive	–
O=C(Nc1ccc(F)cc1)c1ccc(Cn2nc(N3CCN(c4ccccc4)CC3)ccc2=O)o1	inconclusive: 14.1 µM [inhibitor, single point]	–
C=CCn1c(=O)[nH]c2cc(C(=O)N3CCN(c4ccc(C(C)=O)cc4)CC3)ccc2c1=O	active: 35.5 µM	–
O=[N+]([O-])CC(c1ccc(F)cc1)c1c[nH]c2ccccc12 (stereo not drawn)	inconclusive: 89.1 µM [inhibitor, single point]	–
Cc1cc(/C=C2/SC(=O)N(CC(=O)N3CCOCC3)C2=O)c(C)n1-c1ccccc1F	inactive	–
CCOC(=O)c1c(C)[nH]c(C)c1S(=O)(=O)N1CCC(C(=O)N2CCN(c3cccc(C)c3C)CC2)CC1	inconclusive: 89.1 µM [inhibitor, single point]	–
Cc1cnc(C(=O)N2CCCC(N3CCN(c4ccccc4F)CC3)C2)cn1 (stereo not drawn)	inconclusive: 89.1 µM [inhibitor, single point]	–
N/C(=N\N=C\c1cccs1)SC1CC(=O)N(c2ccc(Br)cc2)C1=O (stereo not drawn)	inconclusive: 1 µM [inhibitor, full curve, poor fit]	–
Cc1ccccc1NC(=O)c1ccc(-n2cncn2)nc1	inconclusive: 89.1 µM [inhibitor, single point]	–
Cc1cc2ncn(CCC(=O)NC(C)(C)C)c2cc1C	inconclusive: 79.4 µM [inhibitor, single point]	–
CN(C)CCNc1ncnc2oc(-c3ccccc3)c(-c3ccccc3)c12	inactive	–
CCOc1ccccc1CN1CCN(S(=O)(=O)CC)CC1	inactive	–
COc1ccc(OCCn2nnc3sc4c(c3c2=O)CCC(C(C)(C)C)C4)cc1 (stereo not drawn)	inconclusive: 14.1 µM [inhibitor, full curve]	–
O=C(OCC(=O)N1CCN(S(=O)(=O)c2ccc(Cl)cc2)CC1)c1ccc([N+](=O)[O-])o1	inconclusive: 35.5 µM [inhibitor, single point]	–

Exported field by field: four of the compounds above
O=C(Nc1ccc(F)cc1)c1ccc(Cn2nc(N3CCN(c4ccccc4)CC3)ccc2=O)o1
  Potency: inconclusive: 14.1 µM [inhibitor, single point]
C=CCn1c(=O)[nH]c2cc(C(=O)N3CCN(c4ccc(C(C)=O)cc4)CC3)ccc2c1=O
  Potency: active: 35.5 µM
O=[N+]([O-])CC(c1ccc(F)cc1)c1c[nH]c2ccccc12 (stereo not drawn)
  Potency: inconclusive: 89.1 µM [inhibitor, single point]
Cc1cc(/C=C2/SC(=O)N(CC(=O)N3CCOCC3)C2=O)c(C)n1-c1ccccc1F
  Potency: inactive

The list continues.

SMILES	Potency	activity change, negative = inhibition
Cc1cccc(C)c1NC(=O)NCCSc1snnc1C	inconclusive: 39.8 µM [inhibitor, single point]	–
COc1ccc(N/C=C2\C(=O)CCc3c2oc2cc(Cl)c(O)c(Cl)c32)cc1	inconclusive: 79.4 µM [inhibitor, partial curve]	–
CCC(NC(=O)Nc1cc(Cl)ccc1OC)c1c(-n2cccc2)sc2c1CCN(C)C2 (stereo not drawn)	inactive	–
CCCCNC(=O)c1cccc(-n2cnc3cccnc32)c1C	inactive	–
CC1CCCCN1C(=O)c1ccc2c(c1)N(Cc1cccc(Cl)c1)C(=O)c1ccccc1S2=O (stereo not drawn)	inconclusive: 20 µM [inhibitor, full curve]	–
Cc1ccc(SCC(=O)N(C)C2CCS(=O)(=O)C2)cc1 (stereo not drawn)	inconclusive: 89.1 µM [inhibitor, single point]	–
Cc1ccc(C)c(NC(=O)C(Sc2nc3ccccc3c(=O)n2CC(C)C)c2ccccc2)c1 (stereo not drawn)	inconclusive: 0.562 µM [inhibitor, full curve, poor fit]	–
Cc1ccc(C(C2=C(O)CC(C)(C)CC2=O)C2C(=O)CC(C)(C)CC2=O)o1 (stereo not drawn)	inconclusive: 14.1 µM [inhibitor, partial curve]	–
COc1ccc(NC(=O)c2c(-c3c(Cl)cccc3Cl)noc2C)cn1	inconclusive: 2.82 µM [inhibitor, single point]	–
Cc1c(NC2=C(Cl)C(=O)N(c3ccccc3Cl)C2=O)c(=O)n(-c2ccccc2)n1C	inconclusive: 50.1 µM [inhibitor, partial curve, poor fit]	–
CCc1ccc(CNC(=O)CCCN2C(=O)CCn3nc(-c4cccn4C)cc32)cc1	inconclusive: 89.1 µM [inhibitor, single point]	–
Cn1c(SCC(=O)Nc2sccc2C(N)=O)nnc1-c1ccncc1	inconclusive: 22.4 µM [inhibitor, partial curve]	–
CCC1(C)CC2(CCCN(CCC(=O)c3ccccc3)C2)CCO1 (stereo not drawn)	inactive	–
O=C(CN1C(=O)S/C(=C\c2ccc(Cl)cc2)C1=O)NNC(=O)c1ccccc1O	active: 50.1 µM	–
C=CCN(CC=C)C(=O)COC(=O)c1ccc(Sc2ncn[nH]2)c([N+](=O)[O-])c1	inconclusive: 35.5 µM [inhibitor, partial curve, poor fit]	–
COc1ccc(CCNC(=O)CCCn2c(=O)c3cccn3c3ccccc32)cc1OC	inconclusive: 89.1 µM [inhibitor, single point]	–
O=C(CSc1n[nH]c(-c2ccco2)n1)Nc1sc2c(c1C(=O)Nc1ccccc1)CCCC2	inconclusive: 15.8 µM [inhibitor, partial curve, poor fit]	–
CCOC(=O)c1ccc(S(=O)(=O)N2CCN(C3CCCC3)CC2)cc1	inconclusive: 63.1 µM [inhibitor, single point]	–
Cc1ccc2[nH]c(C)c(/C=C/c3cc[n+](C)cc3)c2c1	inactive	–
CC(=O)Nc1ccc(NC(=O)Cc2ccc(S(=O)(=O)N3CCCCC3)s2)cc1	inconclusive: 12.6 µM [inhibitor, full curve, poor fit]	–
Cc1cc(Nc2ccccc2)c2c([N+](=O)[O-])ccc(C)c2n1	inactive	–
O=C(O)c1cc2nccc(-c3ccco3)n2n1	inactive	–
